Consider one compound from patent US11034685B2, “Aminopyridine derivatives as TAM family kinase inhibitors” (SignalChem Lifesciences Corporation, priority 2013, dated 2021).

By UniProt entry, the sequences of proteins in these tests, tags left out. Residues count along the entry.
UniProt Q06418, 455-890 limits assumed: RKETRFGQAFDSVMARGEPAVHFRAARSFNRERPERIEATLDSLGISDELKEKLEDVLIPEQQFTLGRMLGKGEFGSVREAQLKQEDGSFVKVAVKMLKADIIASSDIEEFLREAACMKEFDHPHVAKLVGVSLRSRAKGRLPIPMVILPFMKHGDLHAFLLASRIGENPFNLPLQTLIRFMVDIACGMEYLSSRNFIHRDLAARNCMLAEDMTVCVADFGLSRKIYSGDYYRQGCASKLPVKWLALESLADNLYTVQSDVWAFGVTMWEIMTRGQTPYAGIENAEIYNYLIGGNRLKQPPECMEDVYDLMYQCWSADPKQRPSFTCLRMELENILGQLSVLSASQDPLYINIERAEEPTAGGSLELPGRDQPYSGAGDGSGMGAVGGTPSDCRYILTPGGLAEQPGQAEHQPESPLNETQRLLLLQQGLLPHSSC
UniProt P30530, 473-894 limits assumed: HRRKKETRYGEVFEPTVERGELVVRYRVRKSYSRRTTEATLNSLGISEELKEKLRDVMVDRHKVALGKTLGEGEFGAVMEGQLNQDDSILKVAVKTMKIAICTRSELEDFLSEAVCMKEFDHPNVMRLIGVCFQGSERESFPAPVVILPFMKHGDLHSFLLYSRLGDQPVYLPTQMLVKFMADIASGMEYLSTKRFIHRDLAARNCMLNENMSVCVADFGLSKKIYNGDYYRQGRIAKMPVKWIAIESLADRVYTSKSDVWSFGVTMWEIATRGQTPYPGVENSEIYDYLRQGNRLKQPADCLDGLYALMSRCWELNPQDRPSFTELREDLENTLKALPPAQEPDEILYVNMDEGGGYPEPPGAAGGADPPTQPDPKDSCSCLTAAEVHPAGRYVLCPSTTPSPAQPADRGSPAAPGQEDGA
UniProt Q12866, 578-872 limits assumed: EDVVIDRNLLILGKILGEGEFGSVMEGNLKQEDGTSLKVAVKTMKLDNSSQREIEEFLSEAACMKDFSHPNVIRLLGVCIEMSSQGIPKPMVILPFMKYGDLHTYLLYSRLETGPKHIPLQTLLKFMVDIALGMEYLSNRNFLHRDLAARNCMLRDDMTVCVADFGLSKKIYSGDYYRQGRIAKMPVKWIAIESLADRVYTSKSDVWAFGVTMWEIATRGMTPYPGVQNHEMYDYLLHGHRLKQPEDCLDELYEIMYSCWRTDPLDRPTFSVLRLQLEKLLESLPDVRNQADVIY

The target of test [1] is Recombinant human Tyro3 (455-end) (Homo sapiens, UniProt Q06418). Briefly: Kinase enzymatic activity assay ([33P]-ATP phosphate transfer), Tyro3. The note with it: read-out: IC50 Tyro3; inhibitory activity on Tyro3; class symbols. As to the method:
(§1) Preparation of Active Recombinant Kinase Proteins:
(§2) Recombinant human Tyro3 (455-end, the gene accession number NM_006293), human Axl (473-end, the gene accession number NM_021913) and human Mer (578-872, the gene accession number NM_006343) were independently expressed by baculovirus in Sf9 insect cells using an N-terminal GST tag. The recombinant proteins were stored at −70° C. in a medium containing 50 mM Tris-HCl, pH 7.5, 150 mM NaCl, 10 mM glutathione, 0.1 mM EDTA, 0.25 mM DTT, 0.1 mM PMSF and 25% glycerol. The recombinant proteins were aliquoted into smaller quantities after centrifugation to avoid repeated handling and multiple freeze/thaw cycles for the most favorable performance.
(§3) Preparation of Assay Reagents: […]
(§4) The enzymatic activity of all three kinases was determined as follows. […] After the plate was dried in air, scintillation fluid was added to each well and the radioactivity in each well in CPM was counted by a Microbeta TriLux. The corrected CPM in each test well was determined by subtracting the average value of Blank well values. Percentage of inhibition of the kinase enzymatic activity by the test compound was determined using the following formula: […]
(§5) The IC50 values were determined in a similar way following a serial dilution of the test compound. The percentage of inhibition at each concentration was calculated following the above formula. […]

In the next test the target is human Axl (473-end) (Homo sapiens, UniProt P30530). Briefly: Kinase enzymatic activity assay ([33P]-ATP phosphate transfer), Axl. As to conditions: read-out: IC50 Axl; inhibitory activity on Axl; class symbols. As to the method:
as §1, §2, §3, §4, §5

The target of the next test is human Mer (578-872) (Homo sapiens, UniProt Q12866). Briefly: Kinase enzymatic activity assay ([33P]-ATP phosphate transfer), Mer. As to conditions: read-out: IC50 Mer; inhibitory activity on Mer; class symbols. As to the method: as §1, §2, §3, §4, §5

Each structure is given as a SMILES string. Structures were worked out from names or drawings and are uncertain. Where only a bound is given, the exact number is not on record here.

Broadly, the IC50 is the point on the concentration scale where inhibition reaches its midpoint. Take `CN1CCC(n2cc(-c3cnc(N)c(-c4ccc(-c5ccccc5)o4)c3)cn2)CC1`: the IC50 in test [1] is under 500 nM; on human Axl (473-end), under 500 nM; on human Mer (578-872), 1 to 10 µM.
